Test results as given in publication PMC12561191.
Positions count from the first letter of the chain named. Results are given in words; binding and its absence hold for the method and conditions named. For part of these data: In cells and extracts the contact can be indirect. Some binding calls cover weakened binding; strength is not graded here. Values belong to the binder of their own block, whether it stands above or below them.

By UniProt entry, the sequences of proteins in these tests, tags left out.
UniProt Q07813: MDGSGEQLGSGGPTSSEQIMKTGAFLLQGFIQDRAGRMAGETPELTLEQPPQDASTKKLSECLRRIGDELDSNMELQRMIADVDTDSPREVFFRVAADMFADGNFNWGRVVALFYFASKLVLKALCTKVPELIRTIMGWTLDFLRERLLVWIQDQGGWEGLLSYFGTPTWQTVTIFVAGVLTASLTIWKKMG

Tests used:
[1] = target: Bcl2‐associated X protein (BAX), endogenous in AC16 cells (human (endogenous in AC16)), Q07812; assay: co-IP; endogenous proteins in lysates (IP lysis buffer: 50 mM HEPES pH 7.4, 150 mM NaCl, 0.1% Triton X-100, 2 mM EGTA) of AC16 cells and primary WT cardiocytes, Ang II (0.2 µM) for 48 h; Anti-MANF (Abcam ab67271) or Anti-BAX (Abcam ab182733) overnight at 4 °C, protein A/G plus-agarose; immunoblot; conditions: remark: other sources report otherwise
[2] = target: Bcl2‐associated X protein (BAX), endogenous in primary WT mouse cardiocytes (mouse (endogenous in primary cardiocytes)) (UniProt Q07813); assay: as above
[3] = target: BAX, the ligand protein coupled on the SPR chip, Q07812; assay: SPR; Biacore X100; BAX as ligand (50 µg/mL in 10 mM sodium acetate) coupled on CM5 chip; MANF or Mut C-MANF flowed; running buffer 1x PBS-P+ (5% DMSO, pH 7.4), 30 µL/min, 80 s; regeneration 10 mM glycine hydrochloride pH 2.0; both purified; conditions: remark: other sources report otherwise

binding [1]: binds
B1: Mesencephalic astrocyte‐derived neurotrophic factor (MANF), endogenous in AC16 cells, P55145 25-182 (protein)
chain: LRPGDCEVCISYLGRFYQDLKDRDVTFSPATIENELIKFCREARGKENRLCYYIGATDDAATKIINEVSKPLAHHIPVEKICEKLKKKDSQICELKYDKQIDLSTVDLKKLRVKELKKILDDWGETCKGCAEKSDYIRKINELMPKYAPKAASARTDL

binding [2]: binds
B2: Mesencephalic astrocyte‐derived neurotrophic factor (MANF), endogenous in primary WT mouse cardiocytes (protein, UniProt Q9CXI5 22-179)
chain: B1 chain with N34E, T126M

binding [3]: binds
B3: recombinant human MANF (rhMANF) protein, P55145 25-182 (protein)
chain: B1 chain
